Among the data in publication PMC8213124 are binding values, retold here.

In one test the target is T1, CCL3 (human), P10147.
T1 chain: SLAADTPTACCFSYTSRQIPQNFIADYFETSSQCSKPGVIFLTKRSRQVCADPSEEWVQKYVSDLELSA
Briefly: cross-linking; 50 ng chemokine in 20 mM HEPES, 30 min at room temperature without or with phospholipid (brain PE, PC, PS or heart CL; 1:8 chemokine:total lipid molar ratio), then 0.25 mM BS3 for 30 min; SDS-PAGE and immunoblot with anti-chemokine antibodies; both purified. To be noted: remark: other sources report otherwise. A general note: In western blotting, separated proteins are transferred to a membrane and probed.

For a further test, the target named is T2, CCL21 (human), O00585.
T2 chain: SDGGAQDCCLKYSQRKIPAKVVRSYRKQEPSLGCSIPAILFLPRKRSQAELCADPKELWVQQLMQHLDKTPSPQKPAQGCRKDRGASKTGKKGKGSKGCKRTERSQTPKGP
The test is described as above. To be noted: remark: other sources report otherwise.

Results are given in words; binding and its absence hold for the method and conditions named. Some results given as binding are weak or reduced against the parent protein; the word gives no strength.

B1: CCL3, P10147 24-92 (protein)
chain: SLAADTPTACCFSYTSRQIPQNFIADYFETSSQCSKPGVIFLTKRSRQVCADPSEEWVQKYVSDLELSA
For the molecule B1, the binding entry with CCL3 (human), P10147 was “binds”.

B2: CCL21, O00585 24-134 (protein)
chain: SDGGAQDCCLKYSQRKIPAKVVRSYRKQEPSLGCSIPAILFLPRKRSQAELCADPKELWVQQLMQHLDKTPSPQKPAQGCRKDRGASKTGKKGKGSKGCKRTERSQTPKGP
For the molecule B2, in the test with CCL21 (human), O00585, the binding result is “binds”.
